# According to patent US8293258B2, “Pesticide treatments made from hop extracts” (John I. Hass, Inc., priority 2000, dated 2012):
# At least one structure is not confirmed: it was looked up by name or label, or the drawing left a doubt.
# System: Phytophthora infestans
# Format: in vivo
# Conditions: standard control fungicide, concentration not given, greenhouse
smiles,measurement,value
"N#Cc1c(Cl)c(Cl)c(Cl)c(C#N)c1Cl [Standard Control, Chlorothalonil]",control of the potato late blight organism,complete control
